Consider 37 targets from the supplement of paper PMC12067093, “Discovery and optimisation of a covalent ligand for TRIM25 and its application to targeted protein ubiquitination” (Chemical Science, 2025).

The other results are listed elsewhere or left out.
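Further: competitive profiling in live THP-1 cells: cysteine peptides tagged with an iodoacetamide desthiobiotin (IA-DTB) probe, intensity after compound treatment relative to DMSO-treated cells.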

Compound in the assay: Cc1cc(ccc1-c1ccccc1)C(=O)N1CCCN(CC1)C(=O)CCl [compound 10]
The assay is described as follows: probe-labelled cysteine peptide fold change vs DMSO (competition) (log2 fold change); higher = less target engagement (more negative = stronger competition). Particulars: 10 µM; THP-1; incubation time: 4 h.
In the case of “DIAPH2_O60879_884_TTLLHFIADICEEK (UniProt O60879)”, the “probe-labelled cysteine peptide fold change” value worked out at 0.136.

For the target “DHX36_Q9H2U1_836_AVICAGLYPK (UniProt Q9H2U1)”, the “probe-labelled cysteine peptide fold change” value was -0.0417.

With “DIDO1_Q9BTC0_288+296_CEEWFHGDCVGISEAR (UniProt Q9BTC0)”, the “probe-labelled cysteine peptide fold change” value was -0.108.

With “DHX30_Q7L2E3_118_QAAAAACQLFK (UniProt Q7L2E3)”, the “probe-labelled cysteine peptide fold change” value is -0.141.

Take “DMXL1_Q9Y485_2781_MFEWGHSQQITCFR (UniProt Q9Y485)”: the “probe-labelled cysteine peptide fold change” value is -0.0118.

On to “DIS3L_Q8TF46_482_GCEDVDDTLSVR (UniProt Q8TF46)”, for which the “probe-labelled cysteine peptide fold change” value is -0.331.

Regarding “DNAJA1_P31689_177_IHQIGPGMVQQIQSVCMECQGHGER (UniProt P31689)”, the “probe-labelled cysteine peptide fold change” value was 0.00655.

“DHX36_Q9H2U1_135_NTPCSENK (UniProt Q9H2U1)”: the “probe-labelled cysteine peptide fold change” value is -0.18.

As to “DNMT1_P26358_1125_SQACEPSEPEIEIK (UniProt P26358)”, the “probe-labelled cysteine peptide fold change” value was -0.485.

In the case of “DNAJC2_Q99543_140_EGDNDYFTCITK (UniProt Q99543)”, the “probe-labelled cysteine peptide fold change” value came out at 0.0333.

For “DKC1_O60832_131_VTGCLIVCIER (UniProt O60832)”, the “probe-labelled cysteine peptide fold change” value is -0.0378.

Consider “DNAJA2_O60884_280_IGLVEALCGFQFTFK (UniProt O60884)”, for which the “probe-labelled cysteine peptide fold change” value worked out at 0.42.

As for “DICER1_Q9UPY3_801_CFGILTAKPIPQIPHFPVYTR (UniProt Q9UPY3)”, the “probe-labelled cysteine peptide fold change” value amounted to 0.041.

For “DIAPH3_Q9NSV4_663_IRPHEMTENCFWIK (UniProt Q9NSV4)”, the “probe-labelled cysteine peptide fold change” value was -0.0626.

As to “DMXL2_Q8TDJ6_62_HGNIQVSCVECSNQQGR (UniProt Q8TDJ6)”, the “probe-labelled cysteine peptide fold change” value is -0.248.

“DIS3L2_Q8IYB7_396_DLDDALSCKPLADGNFK (UniProt Q8IYB7)”: the “probe-labelled cysteine peptide fold change” value is -0.0741.

For “DIS3L_Q8TF46_203_AAHELCDSILQSR (UniProt Q8TF46)”, the “probe-labelled cysteine peptide fold change” value was found to be 0.0785.

Turning to “DHX29_Q7Z478_1019_VPLEELCLHIMK (UniProt Q7Z478)”, the “probe-labelled cysteine peptide fold change” value amounted to 0.0517.

On to “DNAJC16_Q9Y2G8_744_GKPSCGLGSRPIK (UniProt Q9Y2G8)”, for which the “probe-labelled cysteine peptide fold change” value is -0.538.

As for “DIAPH1_O60610_267_LLSALCILPQPEDMNER (UniProt O60610)”, the “probe-labelled cysteine peptide fold change” value turned out to be 0.0161.

Consider “DNMT1_P26358_691_CPNMAMK (UniProt P26358)”, for which the “probe-labelled cysteine peptide fold change” value is -0.0408.

With “DNASE1L1_P49184_187_DVILLGDFNADCASLTK (UniProt P49184)”, the “probe-labelled cysteine peptide fold change” value is 0.0242.

In the case of “DLAT_P10515_586_NFSAIINPPQACILAIGASEDK (UniProt P10515)”, the “probe-labelled cysteine peptide fold change” value stood at 0.0808.

Take “DHX57_Q6P158_598_VANIICTQPR (UniProt Q6P158)”: the “probe-labelled cysteine peptide fold change” value is -0.173.

As for “DNASE2_O00115_327_GGGTLCAQLPALWK (UniProt O00115)”, the “probe-labelled cysteine peptide fold change” value was -0.108.

For “DNAJA2_O60884_308_VIEPGCVR (UniProt O60884)”, the “probe-labelled cysteine peptide fold change” value was 0.117.

In the case of “DLGAP5_Q15398_696_SSIEDAQCPGLPDLIEENHVVNK (UniProt Q15398)”, the “probe-labelled cysteine peptide fold change” value was -0.229.

In the case of “DNAJC11_Q9NVH1_38_LCMLYHPDK (UniProt Q9NVH1)”, the “probe-labelled cysteine peptide fold change” value came out at 0.0505.

“DNAJC7_Q99615_317_KLDDAIEDCTNAVK (UniProt Q99615)”: the “probe-labelled cysteine peptide fold change” value is 0.232.

In the case of “DNAJB1_P25685_179_VSLEEIYSGCTK (UniProt P25685)”, the “probe-labelled cysteine peptide fold change” value is -0.0218.

As for “DNAJC13_O75165_820_YECLAEEIK (UniProt O75165)”, the “probe-labelled cysteine peptide fold change” value is 0.23.

For “DIEXF_Q68CQ4_311_HVYCLHVINHILK (UniProt Q68CQ4)”, the “probe-labelled cysteine peptide fold change” value was 0.0373.

“DNAJC7_Q99615_164_KVVFCMDR (UniProt Q99615)”: the “probe-labelled cysteine peptide fold change” value was found to be 0.00491.

As for “DNAJA1_P31689_271_RGEDLFMCMDIQLVEALCGFQK (UniProt P31689)”, the “probe-labelled cysteine peptide fold change” value turned out to be 0.0341.

Take “DNMT1_P26358_686_QACQER (UniProt P26358)”: the “probe-labelled cysteine peptide fold change” value was -0.624.

Regarding “DLG4_P78352_562_FGSCVPHTTRPK (UniProt P78352)”, the “probe-labelled cysteine peptide fold change” value is -0.119.

On to “DIAPH1_O60610_1027_MTLLHFLAELCENDYPDVLKFPDELAHVEK (UniProt O60610)”, for which the “probe-labelled cysteine peptide fold change” value was found to be 0.0397.
